{
  "sequences": {"note": "The chains behind the UniProt entries cited, without tags or fusion partners. Where a name states a change or a piece, a line headed by the entry shows the natural chain unless it says otherwise.", "UniProt O00241": "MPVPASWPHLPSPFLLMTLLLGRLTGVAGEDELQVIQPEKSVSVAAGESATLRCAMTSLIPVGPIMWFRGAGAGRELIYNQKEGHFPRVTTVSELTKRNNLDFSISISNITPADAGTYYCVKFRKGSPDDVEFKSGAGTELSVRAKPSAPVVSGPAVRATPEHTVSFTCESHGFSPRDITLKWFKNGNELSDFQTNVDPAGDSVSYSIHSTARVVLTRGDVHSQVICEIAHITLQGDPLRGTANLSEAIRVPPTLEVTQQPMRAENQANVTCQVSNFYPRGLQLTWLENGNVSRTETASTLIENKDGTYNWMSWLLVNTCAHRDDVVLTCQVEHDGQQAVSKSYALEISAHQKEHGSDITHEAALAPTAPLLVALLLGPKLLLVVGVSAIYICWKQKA"},
  "source": "patent US20250026827A1",
  "binders": {"B1": {"name": "SB-31 Fab (Fab, V domains shown)", "VH": "QVQLVQSGAEVKKPGASVKVSCKASGYTFTSYYMHWVRQAPGQGLEWMGIINPGGGSTSYAQKFQGRVTMTRDTSTSTVYMELSSLRSEDTAVYYCAREGLYSSGWYIDVWGQGTLVTVSS", "VL": "DIQMTQSPSSVSASVGDRVTITCRASQGISSWLAWYQQKPGKAPKLLIYAASSLQSGVPSRFSGSGSGTDFTLTISSLQPEDFATYYCQQAVSHPFTFGGGTKVEIK"}},
  "molecular_target": "human SIRPβ1 domain 1 (D1) Fc fusion (human) (UniProt O00241)",
  "test": "Octet, Fab monovalent; binding kinetics showed poor fit to 1:1 model",
  "note": "These are yes or no findings as the source states them, for the method shown. Some entries that bind do so weakly or less than the wild type.",
  "data": [
    {"binder": "B1", "values": [
      {"measurement": "binding", "value": "binds"}
    ]}
  ]
}
